The text below walks through data of PubChem BioAssay AID256 (DTP/NCI, 2004).

The subject of the assay is CD2F1 mice, L1210 leukemia ip, survival T/C. Put plainly: NCI In Vivo Anticancer Drug Screen. Data for tumor model L1210 Leukemia (intraperitoneal) in CD2F1 (CDF1) mice. Particulars: higher T/C = longer survival. The procedure, abridged:
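Vehicle-treated tumor-bearing mice served as controls (C) for compound-treated mice (T). Reported figure is T divided by C.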

[1] abbreviates: T/C endpoint: mean survival time, dose: 200.0 mg/kg/injection, schedule: Q01DX009 (ip), vehicle: saline with Tween-80.
Where [2] appears, read: T/C endpoint: mean survival time, dose: 400.0 mg/kg/injection, schedule: Q01DX009 (ip), vehicle: saline with Tween-80.
[3] abbreviates: T/C endpoint: mean survival time, dose: 200.0 mg/kg/injection, schedule: Q04DX003 (ip), vehicle: saline with Tween-80.
Setting [4] is: T/C endpoint: mean survival time, dose: 400.0 mg/kg/injection, schedule: Q01DX001 (ip), vehicle: saline.
Setting [5] is: T/C endpoint: mean survival time, dose: 12.5 mg/kg/injection, schedule: Q04DX003 (ip), vehicle: saline with Tween-80.
The mark [6] stands for this setting: T/C endpoint: mean survival time, dose: 25.0 mg/kg/injection, schedule: Q04DX003 (ip), vehicle: saline with Tween-80.
Where [7] appears, read: T/C endpoint: mean survival time, dose: 50.0 mg/kg/injection, schedule: Q04DX003 (ip), vehicle: saline with Tween-80.
[8] abbreviates: T/C endpoint: mean survival time, dose: 100.0 mg/kg/injection, schedule: Q04DX003 (ip), vehicle: saline with Tween-80.
Where [9] appears, read: T/C endpoint: mean survival time, dose: 400.0 mg/kg/injection, schedule: Q04DX003 (ip), vehicle: saline with Tween-80.
The mark [10] stands for this setting: T/C endpoint: mean survival time, dose: 4.0 mg/kg/injection, schedule: Q01DX009 (ip), vehicle: Klucel (hydroxypropylcellulose) (HPC).

The list is a part of this screen's results and no random one: it is rich in T/C values a quarter to a half above the control, in often repeated tests (any T/C) and in doses without a T/C. Further doses and runs are listed elsewhere. T/C: endpoint of the treated group in % of that of the vehicle group. Some entries give survivors of the animals treated and no T/C: the source files T/C as zero there, which appears to mark a toxic dose or a test without result, not a measured value. Some doses without a T/C left all or most animals alive at the check, yet need not have been tolerated: survival well below the control is almost never listed, so the zero probably covers shortened survival too. Survivors were counted at the toxicity check, usually on the fifth day, unless a day is given; later deaths do not show. Schedule codes are those of the source, taken here to give the interval after Q, in days (D) or hours (H), and the number of doses after X. Some entries hold several experiments; the values are given in rising order. Where survival is the endpoint, this PubChem deposit counts one and a half times the control or more as active, and values a quarter to a half above the control carry no call in these data; other NCI protocols may use other cut-offs. Some T/C values carry the count of animals alive at the toxicity check (mostly the fifth day); where none is given, no animal had died by that day. Brackets with × stand for listed records that agree.

Regarding `CC(C)(C)NC[Si](C)(C)C`, where the note is “T/C endpoint: mean survival time, dose: 100.0 mg/kg/injection, schedule: Q01DX009 (ip), vehicle: saline”, the survivor count is on record as 3 of 6.
As to `CC(O)C(NC(=O)OC(C)(C)C)C(=O)ON1C(=O)CCC1=O` (stereo unspecified), the survivor count under setting [1] was 2 of 6 and the survivor count under setting [2] was 0 of 6.
Turning to `CN(C)CCCN1c2ccccc2C(C)(C)c2ccccc21`, the survivor count runs as follows: (T/C endpoint: mean survival time, dose: 100.0 mg/kg/injection, schedule: Q01DX009 (ip), vehicle: saline with Tween-80) 2 of 6; under setting [1], 0 of 6; under setting [3], 6 of 6; under setting [2], 0 of 6.
On to `COc1cc2c(cc1OC)C(CCN)=NCC2`, for which the survivor count is, setting by setting: (T/C endpoint: mean survival time, dose: 200.0 mg/kg/injection, schedule: Q04DX003 (ip), vehicle: saline) 3 of 6; (T/C endpoint: mean survival time, dose: 400.0 mg/kg/injection, schedule: Q04DX003 (ip), vehicle: saline) 0 of 6.
Take `OCC(O)COCC#Cc1ccccc1` (stereo unspecified): for the setting “T/C endpoint: mean survival time, dose: 400.0 mg/kg/injection, schedule: Q01DX009 (ip), vehicle: water”, the survivor count is 0 of 6.
As for `CC(C)c1cc2cc(Br)ccc2o1`, the survivor count under setting [4] is 5 of 6.
Take `COc1ccc(OC)c(NC(=O)Nc2cc([N+](=O)[O-])ccc2Cl)c1`: the survivor count (T/C endpoint: mean survival time, dose: 400.0 mg/kg/injection, schedule: Q01DX001 (ip), vehicle: saline with Tween-80) is 6 of 6.
For the compound `[Cl][Pt+2][Cl].[NH-]C1CCCC1.[NH2-]`, the T/C runs as follows: (T/C endpoint: mean survival time, dose: 1.56 mg/kg/injection, schedule: Q04DX003 (ip), vehicle: water) 126 % of control; (T/C endpoint: mean survival time, dose: 6.25 mg/kg/injection, schedule: Q04DX003 (ip), vehicle: saline with Tween-80) 143 % of control; (T/C endpoint: mean survival time, dose: 6.25 mg/kg/injection, schedule: Q04DX003 (ip), vehicle: water) 128 % of control; under setting [5], 133 % of control. The survivor count was 3 of 6 under setting [6], 3 of 6 under setting [7] and 0 of 6 under setting [8].
Regarding `CCN=NNc1ccc(C)cc1`, the survivor count under setting [1] is listed as 2 of 6 and the survivor count under setting [9] was 2 of 6.
`C=C(CC(=O)O)C(=O)O` (tested in a mixture with another compound): the survivor count under setting [9] is 0 of 6.
Take `CCOC(=O)c1ccc(NC(=O)N(C)C2CCCCC2)cc1`: where the note is “T/C endpoint: mean survival time, dose: 400.0 mg/kg/injection, schedule: Q04DX002 (ip), vehicle: saline with Tween-80”, the survivor count is 6 of 6.
With `COc1cc(C2c3cc4c(cc3C(O)C(CO)C2CO)OCO4)cc(OC)c1OC` (stereo unspecified), the T/C under setting [1] is 131 % of control.
As for `Cc1cc(C)c2nc(-c3ccc(Cl)cc3)cc(C(=O)O)c2c1`, the survivor count by setting is: (T/C endpoint: mean survival time, dose: 200.0 mg/kg/injection, schedule: Q01DX001 (ip), vehicle: saline) 1 of 6; under setting [4], 0 of 6; (T/C endpoint: mean survival time, dose: 400.0 mg/kg/injection, schedule: Q04DX002 (ip), vehicle: Klucel (hydroxypropylcellulose) (HPC)) 2 of 3.
Consider `C[C@H]1CN1C1=CC(=O)C(N2C[C@@H]2C)=CC1=O`, for which the T/C runs as follows: (T/C endpoint: mean survival time, dose: 1.0 mg/kg/injection, schedule: Q01DX009 (ip), vehicle: other) 125 % of control; (T/C endpoint: mean survival time, dose: 1.39 mg/kg/injection, schedule: Q01DX009 (ip), vehicle: other) 134 % of control; (T/C endpoint: mean survival time, dose: 1.5 mg/kg/injection, schedule: Q01DX009 (ip), vehicle: other) 125 % of control; (T/C endpoint: mean survival time, dose: 2.08 mg/kg/injection, schedule: Q01DX009 (ip), vehicle: other) 128 % of control; (T/C endpoint: mean survival time, dose: 2.3 mg/kg/injection, schedule: Q01DX009 (ip), vehicle: other) 135 % of control; (T/C endpoint: mean survival time, dose: 5.56 mg/kg/injection, schedule: Q04DX003 (ip), vehicle: saline with Tween-80) 125 % of control. In addition, the T/C is, setting by setting: (T/C endpoint: mean survival time, dose: 8.33 mg/kg/injection, schedule: Q04DX003 (ip), vehicle: saline with Tween-80) 145 % of control; (T/C endpoint: mean survival time, dose: 8.4 mg/kg/injection, schedule: Q01DX001 (ip), vehicle: other) 130 % of control; under setting [5], 147 % of control. Also, the survivor count was 6 of 6 (T/C endpoint: mean survival time, dose: 12.5 mg/kg/injection, schedule: Q01DX009 (ip), vehicle: other); 6 of 6 (T/C endpoint: mean survival time, dose: 19.0 mg/kg/injection, schedule: Q01DX001 (ip), vehicle: other); 1 of 6 (T/C endpoint: mean survival time, dose: 25.0 mg/kg/injection, schedule: Q01DX009 (ip), vehicle: other); 5 of 6 (T/C endpoint: mean survival time, dose: 28.5 mg/kg/injection, schedule: Q01DX001 (ip), vehicle: other); 0 of 6 under setting [8]; 0 of 6 under setting [3]. Further, the survivor count under setting [9] is given as 6 of 6.
On to `O=C1C=C(Cl)C(=O)N1c1cccc(Cl)c1`, for which the survivor count was 2 of 6 under setting [6], 0 of 6 under setting [7] and 0 of 6 under setting [8].
For `CC1CN(CCC#N)C(=O)S1(=O)=O` (stereo unspecified), the survivor count (T/C endpoint: mean survival time, dose: 150.0 mg/kg/injection, schedule: Q01DX001 (ip), vehicle: other) was 2 of 6 and the survivor count (T/C endpoint: mean survival time, dose: 300.0 mg/kg/injection, schedule: Q01DX001 (ip), vehicle: other) was 0 of 6.
Consider `NC(=O)NC1CC1(c1ccccc1)c1ccccc1` (stereo unspecified), for which the survivor count (T/C endpoint: mean survival time, dose: 600.0 mg/kg/injection, schedule: Q01DX001 (ip), vehicle: other) was 0 of 6.
On to `CC[C@]1(O)C[C@H](OC2CC(N(C)C)C(OC3CC(O)C(O)C(C)O3)C(C)O2)c2c(cc3c(c2O)C(=O)c2c(O)ccc(O)c2C3=O)[C@H]1C(=O)OC` (stereo partly specified), for which the T/C by setting is: (T/C endpoint: mean survival time, dose: 0.25 mg/kg/injection, schedule: Q01DX009 (ip), vehicle: Klucel (hydroxypropylcellulose) (HPC)) 97, 118, 120 % of control (2×); (T/C endpoint: mean survival time, dose: 0.5 mg/kg/injection, schedule: Q01DX009 (ip), vehicle: Klucel (hydroxypropylcellulose) (HPC)) 107, 110, 118, 121 % of control; (T/C endpoint: mean survival time, dose: 1.0 mg/kg/injection, schedule: Q01DX009 (ip), vehicle: Klucel (hydroxypropylcellulose) (HPC)) 107, 118 (2×), 121, 127 % of control [9 of 10 alive]; (T/C endpoint: mean survival time, dose: 2.0 mg/kg/injection, schedule: Q01DX009 (ip), vehicle: Klucel (hydroxypropylcellulose) (HPC)) 105, 116, 119, 124, 140 % of control; under setting [10], 108, 112, 142 % of control. Moreover, the survivor count is, setting by setting: under setting [10], 7 of 10; (T/C endpoint: mean survival time, dose: 8.0 mg/kg/injection, schedule: Q01DX009 (ip), vehicle: Klucel (hydroxypropylcellulose) (HPC)) 6 of 6.
Consider `c1ccc([I+]c2ccccc2)cc1`, for which the survivor count was 3 of 6 (T/C endpoint: mean survival time, dose: 5.0 mg/kg/injection, schedule: Q01DX009 (ip), vehicle: saline sonified); 2 of 6 and 4 of 6 (T/C endpoint: mean survival time, dose: 10.0 mg/kg/injection, schedule: Q01DX009 (ip), vehicle: saline sonified); 3 of 6 (T/C endpoint: mean survival time, dose: 20.0 mg/kg/injection, schedule: Q01DX009 (ip), vehicle: saline sonified).
`O=C(NC(Cc1ccc(I)cc1)C(=O)O)c1ccc(Br)cc1` (stereo unspecified): for the setting “T/C endpoint: median survival time, dose: 400.0 mg/kg/injection, schedule: Q01DX009 (ip), vehicle: sodium bicarbonate”, the survivor count is on record as 0 of 6.
For `O=c1cc(-c2ccccc2)[nH]c(-c2ccccc2)c1`, under setting [2], the survivor count was 5 of 6.
Regarding `COC(=O)c1[nH]cnc1/N=N/N(C)C.[Cl][Cu][Cl]`, the survivor count (T/C endpoint: mean survival time, dose: 40.0 mg/kg/injection, schedule: Q01DX001 (ip), vehicle: saline) was 0 of 6.
In the case of `COc1cc(C=C2C(=O)C=CC2=O)ccc1O`, the survivor count runs as follows: (T/C endpoint: mean survival time, dose: 50.0 mg/kg/injection, schedule: Q04DX002 (ip), vehicle: saline with Tween-80) 1 of 3; (T/C endpoint: mean survival time, dose: 100.0 mg/kg/injection, schedule: Q04DX002 (ip), vehicle: saline with Tween-80) 0 of 3; (T/C endpoint: mean survival time, dose: 200.0 mg/kg/injection, schedule: Q04DX002 (ip), vehicle: saline with Tween-80) 0 of 3.
Take `CC1CCCCN1` (stereo unspecified): under “T/C endpoint: mean survival time, dose: 200.0 mg/kg/injection, schedule: Q01DX001 (ip), vehicle: saline with Tween-80”, the survivor count is listed as 1 of 1.
